Measured data: PubChem BioAssay AID1259405 (NCATS, 2018)

Purpose: 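Mouse-designed siRNAs used to find CHO productivity engineering targets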 (primary screen)
Cell system: Chinese hamster CHO-K1 ovary cells with stable secreted eGFP expression
Knock-down reagent: single siRNA against mouse genes, 0.8 pmol siRNA per well (2 µl of 400 nM stock)
Duration: 3 days
Read-out: 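Percent of the per-plate non-targeting control median for intracellular GFP per well by laser scanning cytometry and for cell viability by ATP luminescence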
Reading the numbers: GFP, % of control: higher = more GFP per well, higher productivity; viability (ATP), % of control: higher = more viable cells (more ATP)
Call rule: 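a knock-down is called active if GFP reaches 120% or more of non-targeting control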
This is one part, drawn at random, of about 50,000 reagents tested. In the full data, about 4,000 (8%) got an active call. 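Mouse siRNA library applied to hamster cells; one well for each siRNA.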 A number with no mark means an inactive call. The numbers tell different reagents against one gene apart. No sequences are given here.

Clec4a1 (C-type lectin domain family 4, member a1) #1 showed GFP, % of control 54.7; viability (ATP), % of control 53.7.
Against Clec4a1 (C-type lectin domain family 4, member a1) #2 the deposit lists GFP, % of control 51.9; viability (ATP), % of control 57.6.
Clec4a1 (C-type lectin domain family 4, member a1) #3 scored GFP, % of control 58.5; viability (ATP), % of control 48.7.
With knock-down of Acsl5 (acyl-CoA synthetase long-chain family member 5) #1, the screen gave GFP, % of control 71.5; viability (ATP), % of control 70.3.
After knock-down of Acsl5 (acyl-CoA synthetase long-chain family member 5) #2 the results were GFP, % of control 101; viability (ATP), % of control 98.9.
Depletion of Acsl5 (acyl-CoA synthetase long-chain family member 5) #3 came out at: GFP, % of control 82.2; viability (ATP), % of control 95.1.
Calm3 (calmodulin 3) #1 gave GFP, % of control 89.4; viability (ATP), % of control 97.4.
After knock-down of Calm3 (calmodulin 3) #2 the results were GFP, % of control 86.9; viability (ATP), % of control 86.
With knock-down of Ly6f (lymphocyte antigen 6 family member F) #1, the screen gave GFP, % of control 123 (active); viability (ATP), % of control 57.1.
After knock-down of Ly6f (lymphocyte antigen 6 family member F) #2, the screen gave GFP, % of control 146 (active); viability (ATP), % of control 59.3.
Against Ly6f (lymphocyte antigen 6 family member F) #3, the entry reads GFP, % of control 48.7; viability (ATP), % of control 68.5.
After knock-down of Ndufb9 (NADH:ubiquinone oxidoreductase subunit B9) #1 the results were GFP, % of control 63.2; viability (ATP), % of control 68.3.
For Ndufb9 (NADH:ubiquinone oxidoreductase subunit B9) #2, the entry reads GFP, % of control 105; viability (ATP), % of control 95.7.
For Or2aa1 (olfactory receptor family 2 subfamily AA member 1) #1, the entry reads GFP, % of control 66.7; viability (ATP), % of control 34.6.
Or2aa1 (olfactory receptor family 2 subfamily AA member 1) #2 gave GFP, % of control 121 (active); viability (ATP), % of control 66.2.
With knock-down of Or2aa1 (olfactory receptor family 2 subfamily AA member 1) #3, the screen gave GFP, % of control 72.4; viability (ATP), % of control 51.4.
After knock-down of Ticam1 (TIR domain containing adaptor molecule 1) #1, the screen gave GFP, % of control 121 (active); viability (ATP), % of control 47.8.
Silencing of Ticam1 (TIR domain containing adaptor molecule 1) #2 came out at: GFP, % of control 100; viability (ATP), % of control 68.3.
Against Ticam1 (TIR domain containing adaptor molecule 1) #3, the values are GFP, % of control 82.1; viability (ATP), % of control 87.1.
For Glrx (glutaredoxin) #1, the entry reads GFP, % of control 95.7; viability (ATP), % of control 115.
For Glrx (glutaredoxin) #2, the entry reads GFP, % of control 107; viability (ATP), % of control 68.8.
Glrx (glutaredoxin) #3 scored GFP, % of control 71.1; viability (ATP), % of control 83.
Knock-down of H2-D1 (histocompatibility 2, D region locus 1) #1 gave: GFP, % of control 66.9; viability (ATP), % of control 92.3.
For H2-D1 (histocompatibility 2, D region locus 1) #2, the entry reads GFP, % of control 56.7; viability (ATP), % of control 47.8.
For H2-D1 (histocompatibility 2, D region locus 1) #3, the values are GFP, % of control 68.8; viability (ATP), % of control 58.7.
With knock-down of H2-D1 (histocompatibility 2, D region locus 1) #4, the record shows GFP, % of control 70.1; viability (ATP), % of control 64.
Against H2-D1 (histocompatibility 2, D region locus 1) #5 the deposit lists GFP, % of control 101; viability (ATP), % of control 63.6.
Against H2-D1 (histocompatibility 2, D region locus 1) #6, the entry reads GFP, % of control 70.3; viability (ATP), % of control 58.9.
Silencing of Dtymk (deoxythymidylate kinase) resulted in: GFP, % of control 95.4; viability (ATP), % of control 91.2.
With knock-down of Slc30a3 #1, the screen gave GFP, % of control 82.9; viability (ATP), % of control 69.8.
After knock-down of Slc30a3 #2, the record shows GFP, % of control 49.2; viability (ATP), % of control 75.3.
Slc30a3 #3 gave GFP, % of control 66.5; viability (ATP), % of control 46.4.

3 of these entries in another layout:
target	reagent no.	GFP, % of control	viability (ATP), % of control
Acsl5 (acyl-CoA synthetase long-chain family member 5)	1	71.5	70.3
Acsl5 (acyl-CoA synthetase long-chain family member 5)	2	101	98.9
Acsl5 (acyl-CoA synthetase long-chain family member 5)	3	82.2	95.1

More reagents follow.
Ttk (Ttk protein kinase) #1 scored GFP, % of control 58.8; viability (ATP), % of control 67.4.
After knock-down of Ttk (Ttk protein kinase) #2, the screen gave GFP, % of control 72.1; viability (ATP), % of control 75.2.
For Ttk (Ttk protein kinase) #3, the entry reads GFP, % of control 63.4; viability (ATP), % of control 70.8.
Against 3110009E18Rik (RIKEN cDNA 3110009E18 gene) #1 the deposit lists GFP, % of control 94; viability (ATP), % of control 96.7.
3110009E18Rik (RIKEN cDNA 3110009E18 gene) #2 gave GFP, % of control 196 (active); viability (ATP), % of control 120.
Against 3110009E18Rik (RIKEN cDNA 3110009E18 gene) #3, the values are GFP, % of control 79.2; viability (ATP), % of control 76.5.
Asl (argininosuccinate lyase) #1 showed GFP, % of control 131 (active); viability (ATP), % of control 95.5.
Asl (argininosuccinate lyase) #2 gave GFP, % of control 76; viability (ATP), % of control 87.7.
Asl (argininosuccinate lyase) #3 showed GFP, % of control 102; viability (ATP), % of control 55.1.
Silencing of Scml4 (Scm polycomb group protein like 4) #1 resulted in: GFP, % of control 34.4; viability (ATP), % of control 61.1.
After knock-down of Scml4 (Scm polycomb group protein like 4) #2, the record shows GFP, % of control 59.6; viability (ATP), % of control 88.6.
Scml4 (Scm polycomb group protein like 4) #3 scored GFP, % of control 57.6; viability (ATP), % of control 56.6.
After knock-down of Hap1 (huntingtin-associated protein 1) #1, the record shows GFP, % of control 72.9; viability (ATP), % of control 61.9.
After knock-down of Hap1 (huntingtin-associated protein 1) #2, the record shows GFP, % of control 105; viability (ATP), % of control 62.8.
With knock-down of Hap1 (huntingtin-associated protein 1) #3 the results were GFP, % of control 76.5; viability (ATP), % of control 63.
With knock-down of Ncstn (nicastrin) #1, the screen gave GFP, % of control 25.2; viability (ATP), % of control 42.2.
Against Ncstn (nicastrin) #2, the values are GFP, % of control 73; viability (ATP), % of control 97.
With knock-down of Ncstn (nicastrin) #3, the screen gave GFP, % of control 107; viability (ATP), % of control 63.7.
With knock-down of Ubc (ubiquitin C) #1, the record shows GFP, % of control 58.5; viability (ATP), % of control 59.9.
With knock-down of Ubc (ubiquitin C) #2 the results were GFP, % of control 73.3; viability (ATP), % of control 47.
Against Ubc (ubiquitin C) #3 the deposit lists GFP, % of control 84.6; viability (ATP), % of control 58.8.
